Reference: paper PMC8836561, “Poly-Lysine Dendritic Nanocarrier to Target Epidermal Growth Factor Receptor Overexpressed Breast Cancer for Methotrexate Delivery” (Materials, 2022)
These are yes or no findings as the source states them, for the method shown. Some results given as binding are weak or reduced against the parent protein; the word gives no strength.

Assays:
[1] = biological target: Epidermal growth factor receptor (human (endogenous in MDA-MB-231)) (UniProt P00533); test: flow cytometry on cells; rhodamine B-conjugated peptides incubated with MDA-MB-231 cells (EGFR overexpressed) for 2 h at 37 °C; SiHa cells as EGFR-negative control; only the binder purified
[2] = biological target: Epidermal growth factor receptor (human (endogenous in MDA-MB-231)) (UniProt P00533); test: confocal microscopy of cells with fluorescent peptide; confocal images of peptides on MDA-MB-231 cells, SiHa as receptor-negative control; details only in the supplementary file; only the binder purified

B1: EGFR-specific short peptide E2 (…) (peptide)
peptide: ARSHVGYTGAR
modifications: rhodamine B dye-conjugated (position not given)
For B1, the binding [1] was “binds” and the binding [2] was “binds”.
